Article PMC8118623
No constants are given. Whether binding was seen depends on the method and setting. In cells and extracts the contact can be indirect. Here binding means that the protein was enriched with, or labelled near, the bait; the list need not be complete.

B1: NSMCE4A (protein, UniProt Q9NXX6 1-385)
chain: MSGDSSGRGPEGRGRGRDPHRDRTRSRSRSRSPLSPRSRRGSARERREAPERPSLEDTEPSDSGDEMMDPASLEAEADQGLCRQIRHQYRALINSVQQNREDILNAGDKLTEVLEEANTLFNEVSRAREAVLDAHFLVLASDLGKEKAKQLRSDLSSFDMLRYVETLLTHMGVNPLEAEELIRDEDSPDFEFIVYDSWKITGRTAENTFNKTHTFHFLLGSIYGECPVPKPRVDRPRKVPVIQEERAMPAQLRRMEESHQEATEKEVERILGLLQTYFREDPDTPMSFFDFVVDPHSFPRTVENIFHVSFIIRDGFARIRLDQDRLPVIEPVSINEENEGFEHNTQVRNQGIIALSYRDWEEIVKTFEISEPVITPSQRQQKPSA
B2: NSMCE2 (protein, UniProt Q96MF7 1-247)
chain: MPGRSSSNSGSTGFISFSGVESALSSLKNFQACINSGMDTASSVALDLVESQTEVSSEYSMDKAMVEFATLDRQLNHYVKAVQSTINHVKEERPEKIPDLKLLVEKKFLALQSKNSDADFQNNEKFVQFKQQLKELKKQCGLQADREADGTEGVDEDIIVTQSQTNFTCPITKEEMKKPVKNKVCGHTYEEDAIVRMIESRQKRKKKAYCPQIGCSHTDIRKSDLIQDEALRRAIENHNKKRHRHSE
B3: NSMCE1 (protein, UniProt Q8WV22 1-266)
chain: MQGSTRRMGVMTDVHRRFLQLLMTHGVLEEWDVKRLQTHCYKVHDRNATVDKLEDFINNINSVLESLYIEIKRGVTEDDGRPIYALVNLATTSISKMATDFAENELDLFRKALELIIDSETGFASSTNILNLVDQLKGKKMRKKEAEQVLQKFVQNKWLIEKEGEFTLHGRAILEMEQYIRETYPDAVKICNICHSLLIQGQSCETCGIRMHLPCVAKYFQSNAEPRCPHCNDYWPHEIPKVFDPEKERESGVLKSNKKSLRSRQH
B4: NSMCE3 (protein, UniProt Q96MG7 1-304)
chain: MLQKPRNRGRSGGQAERDRDWSHSGNPGASRAGEDARVLRDGFAEEAPSTSRGPGGSQGSQGPSPQGARRAQAAPAVGPRSQKQLELKVSELVQFLLIKDQKKIPIKRADILKHVIGDYKDIFPDLFKRAAERLQYVFGYKLVELEPKSNTYILINTLEPVEEDAEMRGDQGTPTTGLLMIVLGLIFMKGNTIKETEAWDFLRRLGVYPTKKHLIFGDPKKLITEDFVRQRYLEYRRIPHTDPVDYEFQWGPRTNLETSKMKVLKFVAKVHNQDPKDWPAQYCEALADEENRARPQPSGPAPSS
B5: SLF1 (protein, UniProt Q9BQI6 1-1058)
chain: MEDGTPKHIIQMTGFKMEEKEALVKLLLKLDCTFIKSEKYKNCTHLIAERLCKSEKFLAACAAGKWILTKDYIIHSAKSGRWLDETTYEWGYKIEKDSRYSPQMQSAPKRWREELKRTGAPGAFHRWKVVLLVRTDKRSDSLIRVLEAGKANVILPKSSPSGITHVIASNARIKAEKEKDNFKAPFYPIQYLGDFLLEKEIQNDEDSQTNSVWTEHSNEETNKDFRKDAGFLEMKGALRETMYRTQKEMQNHEDVNVGSILIQHHKKEKFSGSSKDLKFVKMRNTFGSHTYENQKEIKKKDEDIQRSYTLRRKRKKGKESNCKKGVEHEKIKSTLRRHIYNRDQKEMKNSIFAEYAKESKAMAIKTDVDVVEIKNTLRKHIYRAQAVRYNCIRIDKQPVYNVEVKNAEFPRGVLNLIESLIEGHFFKEAIEELSTLQAHYIPPVCVLHALLENVLQDNIDTFSGRYFHILSALLHLHPPWKSPAMSRYYLELFQCPTCMKGAWSLVEVLIRSCLFNESFCHQISENIGSKVLHLTLLKFFFNLIESEVQHLSQKLYDWSDSQNLKITGKAMLLEIFWSGSETSGLLTKPVNMLLEWTIYSHKEKFKSNDVFKHELAYLLAGILGAAIDYWIFLGLKMGRNVMRHMSDDLGSYVSLSCDDFSSQELEIFICSFSSSWLQMFVAEAVFKKLCLQSSGSVSSEPLSLQKMVYSYLPALGKTGVLGSGKIQVSKKIGQRPCFDSQRTLLMLNGTKQKQVEGLPELLDLNLAKCSSSLKKLKKKSEGELSCSKENCPSVVKKMNFHKTNLKGETALHRACINNQVEKLILLLSLPGIDINVKDNAGWTPLHEACNYGNTVCVQEILQRCPEVDLLTQVDGVTPLHDALSNGHVEIGKLLLQHGGPVLLQQRNAKGELPLDYVVSPQIKEELFAITKIEDTVENFHAQAEKHFHYQQLEFGSFLLSRMLLNFCSIFDLSSEFILASKGLTHLNELLMACKSHKETTSVHTDWLLDLYAGNIKTLQKLPHILKELPENLKVCPGVHTEALMITLEMMCRSVMEFS
B6: SMC6 (protein, UniProt Q96SB8 1-1091)
chain: MAKRKEENFSSPKNAKRPRQEELEDFDKDGDEDECKGTTLTAAEVGIIESIHLKNFMCHSMLGPFKFGSNVNFVVGNNGSGKSAVLTALIVGLGGRAVATNRGSSLKGFVKDGQNSADISITLRNRGDDAFKASVYGNSILIQQHISIDGSRSYKLKSATGSVVSTRKEELIAILDHFNIQVDNPVSVLTQEMSKQFLQSKNEGDKYKFFMKATQLEQMKEDYSYIMETKERTKEQIHQGEERLTELKRQCVEKEERFQSIAGLSTMKTNLESLKHEMAWAVVNEIEKQLNAIRDNIKIGEDRAARLDRKMEEQQVRLNEAEQKYKDIQDKLEKISEETNARAPECMALKADVVAKKRAYNEAEVLYNRSLNEYKALKKDDEQLCKRIEELKKSTDQSLEPERLERQKKISWLKERVKAFQNQENSVNQEIEQFQQAIEKDKEEHGKIKREELDVKHALSYNQRQLKELKDSKTDRLKRFGPNVPALLEAIDDAYRQGHFTYKPVGPLGACIHLRDPELALAIESCLKGLLQAYCCHNHADERVLQALMKRFYLPGTSRPPIIVSEFRNEIYDVRHRAAYHPDFPTVLTALEIDNAVVANSLIDMRGIETVLLIKNNSVARAVMQSQKPPKNCREAFTADGDQVFAGRYYSSENTRPKFLSRDVDSEISDLENEVENKTAQILNLQQHLSALEKDIKHNEELLKRCQLHYKELKMKIRKNISEIRELENIEEHQSVDIATLEDEAQENKSKMKMVEEHMEQQKENMEHLKSLKIEAENKYDAIKFKINQLSELADPLKDELNLADSEVDNQKRGKRHYEEKQKEHLDTLNKKKRELDMKEKELEEKMSQARQICPERIEVEKSASILDKEINRLRQKIQAEHASHGDREEIMRQYQEARETYLDLDSKVRTLKKFIKLLGEIMEHRFKTYQQFRRCLTLRCKLYFDNLLSQRAYCGKMNFDHKNETLSISVQPGEGNKAAFNDMRALSGGERSFSTVCFILSLWSIAESPFRCLDEFDVYMDMVNRRIAMDLILKMADSQRFRQFILLTPQSMSSLPSSKLIRILRMSDPERGQTTLPFRPVTQEEDDDQR

These binders were tested against SMC5-SMC6 complex localization factor 2 (SLF2), endogenous (human (endogenous in Jurkat and CEM-T4)) (assay: affinity purification with mass spectrometry; endogenous SLF2 immunoprecipitated (1 ug anti-SLF2, protein A-sepharose) from nuclei of WT versus SLF2-knockout Jurkat T cells; nuclei lysed in 1% IGEPAL, TBS with benzonase; IP buffer 0.5% IGEPAL, 1xTBS, 4°C; interactors undetected in SLF2-KO IP and with >=3 peptides in WT IP).

| Binder | binding |
| --- | --- |
| B1 | binds |
| B2 | binds |
| B3 | binds |
| B4 | binds |
| B5 | binds |
| B6 | binds |
